PubChem BioAssay AID686943, Drosophila RNAi Screening Center – 2013
Test: 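Fly genes whose loss alters ERK activation after insulin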 (primary screen). Cell system: Drosophila S2R+ haemocyte-like cells expressing YFP-tagged ERK (Rolled). Knock-down reagent: long dsRNA against Drosophila genes. Treatment: insulin stimulation versus unstimulated cells; dose and duration not given. Measurement: 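Per-plate z-scores of phospho-ERK immunostaining normalised to YFP-tagged ERK, measured with and without insulin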. Direction: replicate 1, z-score of dpERK with insulin and replicate 2, z-score of dpERK with insulin: higher = more active ERK per ERK-YFP after insulin; replicate 1, z-score of dpERK under basal conditions: higher = more basal active ERK per ERK-YFP; replicate 1, z-score of ERK-YFP with insulin: higher = more YFP-tagged ERK signal.
The screen tested about 23,000 reagents; below is an unselected part of those with a known target gene and a result. 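Extra replicates exist only for a retested subset of genes; insulin dose and duration not given; both raised and lowered dpERK matter.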 The numbers tell different reagents against one gene apart. No sequences are given here. Not given: the amount of reagent, the time to read-out.

no.	gene	reagent no.	replicate 1, z-score of dpERK with insulin	replicate 2, z-score of dpERK with insulin	replicate 1, z-score of dpERK under basal conditions	replicate 1, z-score of ERK-YFP with insulin
1	Ifrd1 (GeneID 33489)	1	-0.47	-0.76	0.25	0.35
2	Ifrd1 (GeneID 33489)	2	-0.5	-0.8	-0.21	-0.02
3	Dgk (GeneID 35738)	1	-3.48	-3.42	-1.79	1.18
4	Dgk (GeneID 35738)	2	0.82	0.42	0.09	0.05
5	Dgk (GeneID 35738)	3	0.55	0.95	0.25	0.29
6	Dgk (GeneID 35738)	4	0.63	1.46	0.93	0.17
7	Dgk (GeneID 35738)	5	-3.53	-4.75	-0.05	-2.48
8	Nle (GeneID 33234)	1	0.51	-1.06	0.94	-0.44
9	Aven (GeneID 32215)	1	-0.55	0.44	-0.06	-0.07
10	Parg (GeneID 31329)	1	0.07	0.26	-0.73	-1.1
11	CG31245 (GeneID 42316)	1	1.01	-0.13	0.98	0.27
12	beat-IIIa (GeneID 35035)	1	0.16	0.38	-0.29	0.01
13	beat-IIIa (GeneID 35035)	2	0.11	0.13	-0.14	-0.37
14	beat-IIIa (GeneID 35035)	3	1.27	1.49	-0.23	-0.07
15	CG7920 (GeneID 43562)	1	1.06	0.46	0.1	1.58
16	CG7920 (GeneID 43562)	2	0.06	-0.03	0.23	1.87
17	CG15642 (GeneID 32476)	1	0.4	0.07	0.53	-0.21
18	CG5321 (GeneID 32399)	1	1	0.33	0.01	-0.16
19	CG5321 (GeneID 32399)	2	0.47	0.27	-0.68	1.4
20	Eglp2 (GeneID 37737)	1	0.56	-0.15	0.06	-0.69
21	Gr93a (GeneID 42568)	1	-0.22	-0.08	-1.04	0.26
22	pkm (GeneID 32108)	1	0.01	-1.37	0.15	-0.44
23	Ciz1 (GeneID 39161)	1	3.66	6.67	4.36	-8.33

Only “replicate 1, z-score of dpERK under basal conditions” (2 entries from above):
Nle (GeneID 33234) = 0.94
Aven (GeneID 32215) = -0.06
